# Library screening results

Chains of the proteins cited; added tags and fusions are not shown.
UniProt E9BF75, entry or part of it: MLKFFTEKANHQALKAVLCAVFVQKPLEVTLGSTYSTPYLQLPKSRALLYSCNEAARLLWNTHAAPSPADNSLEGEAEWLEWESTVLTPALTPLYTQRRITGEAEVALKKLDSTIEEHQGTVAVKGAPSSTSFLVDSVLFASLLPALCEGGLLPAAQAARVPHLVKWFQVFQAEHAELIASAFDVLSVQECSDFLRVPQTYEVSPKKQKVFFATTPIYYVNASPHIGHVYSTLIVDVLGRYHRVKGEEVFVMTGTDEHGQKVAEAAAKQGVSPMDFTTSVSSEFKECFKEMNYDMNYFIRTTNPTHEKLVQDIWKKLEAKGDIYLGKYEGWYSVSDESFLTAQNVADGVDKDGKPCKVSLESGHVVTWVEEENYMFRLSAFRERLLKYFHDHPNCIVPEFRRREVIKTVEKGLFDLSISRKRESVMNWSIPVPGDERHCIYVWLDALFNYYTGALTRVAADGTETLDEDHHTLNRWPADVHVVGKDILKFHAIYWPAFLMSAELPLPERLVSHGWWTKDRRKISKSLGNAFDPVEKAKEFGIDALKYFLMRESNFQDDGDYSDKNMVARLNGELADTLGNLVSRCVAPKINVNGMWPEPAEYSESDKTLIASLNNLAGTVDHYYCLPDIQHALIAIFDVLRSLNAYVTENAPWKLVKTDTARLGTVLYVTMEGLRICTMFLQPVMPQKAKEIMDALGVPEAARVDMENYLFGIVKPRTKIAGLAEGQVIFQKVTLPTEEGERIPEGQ

Source: ChEMBL document CHEMBL3988442, “University of Dundee, Small-Polar-MMV Screening Library” (2021).

All values are in %.
The controls that fix the scale are not given in the record; negative values are as filed.
Compounds were drawn at random from those tested, without regard to their results.

Mtb heat-shock: 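Assay on Mycobacterium tuberculosis, filed only as a heat shock assay from Cornell; the read-out is not stated. The concentration is filed as 10 mM, unlikely as a test dose, so the dose is not known. Higher reads as stronger inhibition (inferred: compounds with an IC50 in retests scored well above the rest). Size under these conditions: about 69,000 compounds, about 930 of them at 50% or above in at least one test.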
LdMetRS: 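Methionyl-tRNA synthetase (putative), Leishmania donovani (UniProt E9BF75). Primary screen of methionyl-tRNA synthetase; the read-out is not stated. The test concentration is not given. The values are filed as inhibition. Of about 68,000 compounds tested this way, about 24 (0.035%) reached 50% or more in at least one test.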
Mtb growth Cornell: 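Whole-cell assay for inhibitors of Mycobacterium tuberculosis growth, labelled Cornell in the record; the read-out is not stated. The concentration is filed as 10 mM, unlikely as a test dose, so the dose is not known. Higher means stronger inhibition (inferred from two other growth screens of the library). Of about 53,000 compounds tested this way, about 900 (1.7%) reached 50% or more in at least one test.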

* CN1CC2(CCNCC2)CC1C(=O)NCCCNc1cccnc1 (stereo not shown) : Mtb heat-shock: -7.678%; LdMetRS: 0.3436%; Mtb growth Cornell: -17.79%
* CN1CSC[C@H]1C(=O)N1CCN(Cc2cccc(F)c2)CC1 : Mtb heat-shock: -7.571%; LdMetRS: 1.489%; Mtb growth Cornell: -51.85%
* Cc1nc(CNc2ncc(Br)cn2)n[nH]1 : Mtb heat-shock: -3.661%; LdMetRS: 15.12%; Mtb growth Cornell: 5.905%
* Cc1cc(N2CCC(c3ncc[nH]3)CC2)c2ccccc2n1 : Mtb heat-shock: -44.08%; LdMetRS: 15.69%; Mtb growth Cornell: 12.3%
* Cc1cccc(NS(=O)(=O)c2cc(C(=O)O)oc2C)c1Cl : Mtb heat-shock: 22.56%; LdMetRS: 10.93%; Mtb growth Cornell: 9.537%
* CC[C@H]1CN(C(=O)CCn2c(C)cccc2=O)CC[C@@]1(C)O : Mtb heat-shock: 3.912%; LdMetRS: 4.693%; Mtb growth Cornell: -56.31%
* Cc1cc(CN(Cc2ccccc2)C(C)CN2CCOCC2)no1 (stereo not shown) : Mtb heat-shock: -13.26%; LdMetRS: 7.317%; Mtb growth Cornell: 2.217%
* O=C(c1ccc(CN2CCCCC2)cc1)N1CCCC1c1cccs1 (stereo not shown) : Mtb heat-shock: 18.67%; LdMetRS: 18.61%; Mtb growth Cornell: 8.876%
* Cc1nc(CCN(C)C(=O)CN2CCCCCC2)no1 : Mtb heat-shock: 3.067%; LdMetRS: 8.362%
* Cc1ccc(CNC(C)c2ccc(N3CCN(C)CC3)c(F)c2)o1 (stereo not shown) : LdMetRS: 5.292%
* COc1ccc(C2=CCN(C(=O)C3CCS(=O)(=O)C3)CC2)cc1 (stereo not shown) : Mtb heat-shock: -10.89%; LdMetRS: 13.13%; Mtb growth Cornell: -3.607%
* O=C(c1cc(Cl)ccc1OC1CCN(C2CCCC2)CC1)N1CCCO1 : Mtb heat-shock: -9.069%; LdMetRS: 8.052%; Mtb growth Cornell: 3.028%
* O=C(O)C(F)(F)F.c1cncc(CN2Cc3nccn3CC(Cn3cncn3)C2)c1 (stereo not shown) : Mtb heat-shock: -15.48%; Mtb growth Cornell: -12.38%
* Cc1ccc(OCC(O)COC2CCOCC2)c(Br)c1 (stereo not shown) : Mtb heat-shock: 10.16%; LdMetRS: 6.866%; Mtb growth Cornell: 22.26%
* Cc1cc(C(=O)N2CCN(c3nc4c(C(C)C)cccc4s3)CC2)on1 : Mtb heat-shock: -0.7761%; LdMetRS: 8.401%; Mtb growth Cornell: -26.74%
* CCS(=O)(=O)N1CCC2(CC1)CN(c1ccsc1)C(=O)CO2 : Mtb heat-shock: 14.76%; LdMetRS: 11.94%; Mtb growth Cornell: -0.5373%
* CNC(=O)[C@H]1C[C@@H]2CN(S(=O)(=O)c3ccc(C)cc3)C[C@@H]2N1C : LdMetRS: 20%
* CC(Cn1cccn1)NCc1ccc(Cl)s1 (stereo not shown) : Mtb heat-shock: -2.882%; LdMetRS: 17.32%
* COc1ccc(-c2cc3nc(CCNC(=O)CN(C)C)nn3cn2)cc1 : Mtb heat-shock: -7.756%; LdMetRS: 10.47%; Mtb growth Cornell: 24.86%
* O=C(Nc1cn[nH]c1)N1CCN(CCSc2ccccc2)CC1 : Mtb heat-shock: 4.435%; LdMetRS: 8.421%; Mtb growth Cornell: 0.1969%
* CC(C)NC(=O)N1CCC2(CC1)COc1ccccc1S(=O)(=O)N(C)C2 : Mtb heat-shock: -33.62%; LdMetRS: 22.34%
* COC(=O)C1CCCN1Cc1ccco1 (stereo not shown) : Mtb heat-shock: -7.021%; LdMetRS: 3.774%; Mtb growth Cornell: -5.754%
* CCOC(=O)CCCN1CCCC(C(=O)Nc2ccc(Cl)cn2)C1 (stereo not shown) : Mtb heat-shock: 10.18%; LdMetRS: 7.246%; Mtb growth Cornell: 3.674%
* CS(=O)(=O)Cc1noc(CN2CCc3c(Cl)cccc3C2)n1 : Mtb heat-shock: -26.4%; LdMetRS: 8.982%; Mtb growth Cornell: -15.45%
* COc1cc(C(=O)NCc2ccc3c(c2)CCCN3C)cc(OC)c1Br : Mtb heat-shock: -0.1722%; LdMetRS: 27.35%; Mtb growth Cornell: -22.15%
* CCn1ncc(S(=O)(=O)N[C@@H]2CC[C@@H](n3ccnc3C)[C@@H]2O)c1C : Mtb heat-shock: -22.12%; LdMetRS: 18.69%; Mtb growth Cornell: -32.39%
* Cn1cc(NC(=O)C2CC(c3ccccc3)C2)ccc1=O (stereo not shown) : Mtb heat-shock: 7.094%; LdMetRS: 15.21%
* CCc1noc(C2CCCCN2C(=O)c2ccccc2)n1 (stereo not shown) : Mtb heat-shock: 8.76%; LdMetRS: -10.13%; Mtb growth Cornell: 8.591%
* CN(C)CCN1CCOCC2(CCN(Cc3ccc[nH]3)CC2)C1.O=C(O)C(F)(F)F.O=C(O)C(F)(F)F.O=C(O)C(F)(F)F : Mtb heat-shock: 9.242%; Mtb growth Cornell: 13.64%
* O=C(Cc1ccsc1)N1C[C@H]2CCC[C@@]2(COCc2ccccn2)C1 : LdMetRS: 3.519%
* C[C@]1(O)CCN(Cc2cccnc2)C[C@@H]1Oc1cccc(F)c1 : Mtb heat-shock: -18.4%; LdMetRS: 6.353%
* CCC(C(=O)NCc1cc(N2CCOCC2)ncn1)n1cccn1 (stereo not shown) : Mtb heat-shock: -12.06%; LdMetRS: 9.415%; Mtb growth Cornell: -5.504%

Repeated from the top, 2 entries:

* CN1CC2(CCNCC2)CC1C(=O)NCCCNc1cccnc1 (stereo not shown) | Mtb heat-shock: -7.678%; LdMetRS: 0.3436%; Mtb growth Cornell: -17.79%
* CN1CSC[C@H]1C(=O)N1CCN(Cc2cccc(F)c2)CC1 | Mtb heat-shock: -7.571%; LdMetRS: 1.489%; Mtb growth Cornell: -51.85%